# Cleaved PARP after 72 h of treatment

From a melanoma drug combination screen (doi:10.1371/journal.pone.0140310); values rounded.

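Human melanoma cell lines in 1,536-well plates were treated with two drugs together for 72 h, then fixed, stained and imaged. Values are the share of nuclei positive for cleaved PARP as a percentage of the same share in the DMSO control: 100 is the control level, higher means more apoptosis. Every drug was used at one fixed concentration, the higher of two screened. These are primary screening values without error estimates. Basal and induced levels differ widely between cell lines.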 Only some of the drugs and lines screened are listed, without regard to their results. An entry leaves out what has no value listed here. A dash means that no value is listed here.

All values are for the listed drug together with veliparib (7 µM): C[C@]1(c2nc3c(C(N)=O)cccc3[nH]2)CCCN1

Drugs:
IMD-0354: O=C(Nc1cc(C(F)(F)F)cc(C(F)(F)F)c1)c1cc(Cl)ccc1O at 0.08 µM
GSK650394: O=C(O)c1ccc(-c2c[nH]c3ncc(-c4ccccc4)cc23)cc1C1CCCC1 at 0.8 µM
MK-2206: NC1(c2ccc(-c3nc4ccn5c(=O)[nH]nc5c4cc3-c3ccccc3)cc2)CCC1 at 2 µM
selumetinib: Cn1cnc2c(F)c(Nc3ccc(Br)cc3Cl)c(C(=O)NOCCO)cc21 at 0.075 µM
vorinostat: O=C(CCCCCCC(=O)Nc1ccccc1)NO at 0.4 µM
AZD7762: NC(=O)Nc1cc(-c2cccc(F)c2)sc1C(=O)N[C@H]1CCCNC1 at 0.1 µM
MK-1775: C=CCn1c(=O)c2cnc(Nc3ccc(N4CCN(C)CC4)cc3)nc2n1-c1cccc(C(C)(C)O)n1 at 0.1 µM
SNS-314: O=C(Nc1cccc(Cl)c1)Nc1ncc(CCNc2ncnc3ccsc23)s1 at 0.004 µM
vatalanib: Clc1ccc(Nc2nnc(Cc3ccncc3)c3ccccc23)cc1 at 10 µM
CX-4945: O=C(O)c1ccc2c(c1)nc(Nc1cccc(Cl)c1)c1ccncc12 at 2 µM
tamatinib: COc1cc(Nc2ncc(F)c(Nc3ccc4c(n3)NC(=O)C(C)(C)O4)n2)cc(OC)c1OC at 2 µM
PF-562271: CN(c1ncccc1CNc1nc(Nc2ccc3c(c2)CC(=O)N3)ncc1C(F)(F)F)S(C)(=O)=O at 0.4 µM
CHIR-265: Cn1c(Nc2ccc(C(F)(F)F)cc2)nc2cc(Oc3ccnc(-c4ncc(C(F)(F)F)[nH]4)c3)ccc21 at 0.4 µM
GW441756: Cn1cc(/C=C2\C(=O)Nc3cccnc32)c2ccccc21 at 2 µM
GW9662: O=C(Nc1ccccc1)c1cc([N+](=O)[O-])ccc1Cl at 10 µM
decitabine: Nc1ncn([C@H]2C[C@H](O)[C@@H](CO)O2)c(=O)n1 at 0.5 µM
CP-690550: C[C@@H]1CCN(C(=O)CC#N)C[C@@H]1N(C)c1ncnc2[nH]ccc12 at 5 µM
dorsomorphin: c1cc(-c2cnn3cc(-c4ccc(OCCN5CCCCC5)cc4)cnc23)ccn1 at 2 µM
nilotinib: Cc1cn(-c2cc(NC(=O)c3ccc(C)c(Nc4nccc(-c5cccnc5)n4)c3)cc(C(F)(F)F)c2)cn1 at 1 µM
lapatinib: CS(=O)(=O)CCNCc1ccc(-c2ccc3ncnc(Nc4ccc(OCc5cccc(F)c5)c(Cl)c4)c3c2)o1 at 4 µM
tozasertib: Cc1cc(Nc2cc(N3CCN(C)CC3)nc(Sc3ccc(NC(=O)C4CC4)cc3)n2)n[nH]1 at 0.03 µM
OSI-906: C[C@]1(O)C[C@@H](c2nc(-c3ccc4ccc(-c5ccccc5)nc4c3)c3c(N)nccn32)C1 at 2 µM
BI-D1870: CC(C)CCN1c2nc(Nc3cc(F)c(O)c(F)c3)ncc2N(C)C(=O)C1C (centres undefined) at 1 µM
SNS-032: CC(C)(C)c1cnc(CSc2cnc(NC(=O)C3CCNCC3)s2)o1 at 0.05 µM
ENMD-2076: Cc1cc(Nc2cc(N3CCN(C)CC3)nc(/C=C/c3ccccc3)n2)n[nH]1 at 0.2 µM
vismodegib: CS(=O)(=O)c1ccc(C(=O)Nc2ccc(Cl)c(-c3ccccn3)c2)c(Cl)c1 at 5 µM
dasatinib: Cc1nc(Nc2ncc(C(=O)Nc3c(C)cccc3Cl)s2)cc(N2CCN(CCO)CC2)n1 at 0.02 µM
U73122: COc1ccc2c(c1)CCC1C2CCC2(C)C(NCCCCCCN3C(=O)C=CC3=O)CCC12 (centres undefined) at 2 µM
L-779450: Oc1cc(-c2nc(-c3ccccc3)[nH]c2-c2ccncc2)ccc1Cl at 1 µM
AS-252424: O=C1NC(=O)/C(=C/c2ccc(-c3ccc(F)cc3O)o2)S1 at 5 µM
bexarotene: C=C(c1ccc(C(=O)O)cc1)c1cc2c(cc1C)C(C)(C)CCC2(C)C at 10 µM
perifosine: CCCCCCCCCCCCCCCCCCOP(=O)([O-])OC1CC[N+](C)(C)CC1 at 2 µM
KU-0063794: COc1ccc(-c2ccc3c(N4CCOCC4)nc(N4C[C@@H](C)O[C@@H](C)C4)nc3n2)cc1CO at 0.1 µM
LFM-A13: C/C(O)=C(\C#N)C(=O)Nc1cc(Br)ccc1Br at 10 µM
lenalidomide: Nc1cccc2c1CN(C1CCC(=O)NC1=O)C2=O (centres undefined) at 5 µM
embelin: CCCCCCCCCCCC1=C(O)C(=O)C=C(O)C1=O at 6 µM
cediranib: COc1cc2c(Oc3ccc4[nH]c(C)cc4c3F)ncnc2cc1OCCCN1CCCC1 at 2 µM

Second drug	SK-MEL-2	WM451Lu	G-361
MK-1775	165	127	76.1
L-779450	186	218	47.2
CX-4945	324	112	170
bexarotene	135	88.7	112
LFM-A13	52.9	69.4	135
MK-2206	60.2	226	74.1
SNS-314	145	461	149
AZD7762	145	302	197
AS-252424	78.6	84.4	205
vorinostat	105	98.9	183
selumetinib	274	119	211
PF-562271	234	158	236
GW9662	163	197	102
ENMD-2076	139	49.7	137
OSI-906	238	36.7	95.8
CP-690550	78.6	176	50.0
lenalidomide	72.3	117	57.1
IMD-0354	223	61.7	42.5
tamatinib	148	107	162
BI-D1870	163	94.2	387
U73122	162	93.3	28.5
dasatinib	163	84.9	66.8
perifosine	154	82.7	58.3
vismodegib	171	93.3	105
KU-0063794	124	143	104
SNS-032	367	531	170
tozasertib	228	143	46.4
GSK650394	180	36.0	210
CHIR-265	203	147	883
cediranib	-	55.5	49.9
embelin	58.0	65.5	39.7
decitabine	154	121	108
nilotinib	289	89.8	16.4
dorsomorphin	83.9	143	49.6
GW441756	32.0	52.7	37.7
lapatinib	214	74.6	39.7
vatalanib	94.7	40.9	72.8

Once more, the final 3:

- GW441756 : SK-MEL-2: 32.0; WM451Lu: 52.7; G-361: 37.7
- lapatinib : SK-MEL-2: 214; WM451Lu: 74.6; G-361: 39.7
- vatalanib : SK-MEL-2: 94.7; WM451Lu: 40.9; G-361: 72.8